Results from one PubChem assay

Data taken from PubChem BioAssay AID1224904, deposited by Broad Institute (2016).

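293T-iDUX4 dual-reporter cells; luminescence of the tet-on Italica luciferase control is read after 24 h. The test concentration is not given here. Percent change in the Italica control signal; more negative values mean stronger inhibition, which points to nonspecific, tet-on or cytotoxic effects.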

Values are in %. Common to all entries: measured here: Italica tet-on control reporter. This is a side read-out of the assay, for part of the compounds, not drawn at random.

For COc1ccc2c3c(n(C)c2c1)[C@H](CO)N(C(=O)C1CC1)CC31CCN(Cc2cccc(F)c2)CC1 the result was activity change -70.91%. For N#C[C@H]1[C@@H](c2ccccc2C2=CCCCC2)[C@H](CO)N1C(=O)c1cccc(F)c1 the result was activity change -2.417%. O=S(=O)(c1cccc(F)c1)N1CC[C@@H]2[C@H](CO)Nc3ccc(C#Cc4ccccc4F)cc3[C@@H]21 read activity change -4.355%. With O=S(=O)(c1ccccc1)N1CCCCN2[C@H](CO)[C@H](c3ccc(-c4ccccc4)cc3)[C@@H]2C1 the assay gave activity change -46.33%.

CO[C@@H]1CN(C)C(=O)c2ccc(NC(=O)NC(C)C)cc2OC[C@@H](C)N(Cc2ccc(-c3ccccn3)cc2)C[C@H]1C gave activity change -8.727%. OC[C@@H]1[C@H](c2ccc(-c3ccccc3F)cc2)[C@@H]2CN(Cc3cccnc3)CCCCN12 gave activity change -6.761%. Result for O=C(C[C@@H]1CC[C@H]2[C@@H](COC[C@@H](O)CN2C(=O)c2ccc(F)cc2)O1)NC1Cc2ccccc2C1 was activity change -8.468%. Result for COc1ccccc1NC(=O)N1CCCCN2[C@H](CO)[C@H](c3ccc(-c4cccc(C#N)c4)cc3)[C@H]2C1 was activity change -37.65%.

COc1ccc(S(=O)(=O)N[C@H]2C=C[C@@H](CC(=O)N3CCC(Cc4ccccc4)CC3)O[C@H]2CO)cc1 gave activity change -9.893%. O=C(c1ccc2c(c1)OCO2)N1C[C@@H]2N[C@H](C1)C2c1ccc(-c2ccccc2F)cc1 (stereo not given in full) gave activity change -35.38%. For O=C(CCN1CCCCC1)N[C@H]1CC[C@H](CC(=O)N2CCC(Cc3ccccc3)CC2)O[C@@H]1CO the result was activity change 5.895%. With C[C@H](CO)N1C[C@H](C)[C@H](CN(C)C(=O)[C@@H](Cc2ccccc2)N(C)C)OCc2ccccc2-c2c(n(C)c3ccccc23)C1=O the assay gave activity change -32.75%.

COc1ccc2c3c(n(C)c2c1)[C@H](CO)NCC31CN(C(=O)c2ccccc2)C1 read activity change 3.639%. Result for Cc1ccc(-c2ccc([C@H]3[C@@H](CO)N4CCCCN(C(=O)Nc5ccccc5)C[C@H]34)cc2)cc1 was activity change -85.9%. With COc1ccc(-c2ccc3c(c2)[C@H]2[C@H](CCN2C(=O)c2ccc4c(c2)OCO4)[C@@H](CO)N3)cc1 the assay gave activity change -37.88%. With C/C=C/c1ccc(C2[C@@H]3CN(C(=O)Nc4ccc(C(F)(F)F)cc4)C[C@H]2N3)cc1 (stereo not given in full) the assay gave activity change -4.237%.

For Cc1ccc(-c2ccccc2[C@H]2[C@@H](C#N)N(C(=O)c3cccc(F)c3)[C@H]2CO)cc1 the result was activity change -11.29%. COc1ccc(-c2ccc3c(c2)[C@@H]2[C@@H](CCN2C(=O)c2ccc4c(c2)OCO4)[C@H](CO)N3C)cc1 read activity change -28.67%. O=C(C1CCC1)N1CC2(C1)[C@@H](c1ccccc1)[C@@H](CO)N2CC1CCCC1 gave activity change -19.52%. COc1ccc(-c2ccc3c(c2)[C@H]2[C@H](CCN2C(=O)c2ccc4c(c2)OCO4)[C@H](CO)N3C)cc1 read activity change -49.49%.

C[C@@H]1CN([C@@H](C)CO)C(=O)c2c(c3ccccc3n2C)-c2ccccc2CO[C@H]1CN(C)Cc1ccc2c(c1)OCO2 read activity change -0.05355%. CO[C@H]1CC[C@H]2CCN(C)C(=O)C[C@H](c3ccccc3)CN(C)C(=O)c3cccc(C#N)c3OC[C@@H]1O2 gave activity change -25.11%. Result for COc1ccc2c3c(n(C)c2c1)[C@@H](CO)N(Cc1ccc(F)cc1)CC31CCN(CC2CC2)CC1 was activity change -58.16%. COc1ccc(-c2ccc3c(c2)[C@H]2[C@H](CCN2C(=O)c2cccc(F)c2)[C@H](CO)N3)cc1 gave activity change -69.12%.

Result for COc1ccc(C#Cc2ccc3c(c2)[C@@H]2[C@@H](CCN2C(=O)c2ccncc2)[C@@H](CO)N3C)cc1 was activity change -8.991%. COc1ccc(C#Cc2ccc([C@H]3[C@@H](CO)N4CCCCN(C(=O)Nc5cccc(F)c5)C[C@@H]34)cc2)cc1 gave activity change -0.1103%. For O=C(c1cnccn1)N1CC[C@@H]2[C@H]1c1cc(-c3cccc(F)c3)ccc1N[C@@H]2CO the result was activity change -3.935%. Result for O=C(NC1CCCCC1)N1C[C@@H]2N[C@H](C1)C2c1ccc(-c2ccc(F)cc2)cc1 (stereo not given in full) was activity change -86.94%.

With CO[C@@H]1CN(C)C(=O)c2cc(NC(=O)c3ccc4c(c3)OCO4)ccc2OC[C@@H](C)N(CCC(F)(F)F)C[C@H]1C the assay gave activity change -2.242%. With CO[C@@H]1CN(C)C(=O)c2cc(NS(=O)(=O)c3cccc(F)c3)ccc2OC[C@@H](C)N(Cc2cc(F)ccc2F)C[C@H]1C the assay gave activity change -12.71%. C[C@H](CO)N1C[C@H](C)[C@H](CN(C)Cc2ccc(Oc3ccccc3)cc2)OCc2cnnn2CCCC1=O read activity change -21.69%.

For reference, 2 entries once more:

compound,activity change (%)
C[C@H](CO)N1C[C@H](C)[C@H](CN(C)C(=O)[C@@H](Cc2ccccc2)N(C)C)OCc2ccccc2-c2c(n(C)c3ccccc23)C1=O,-32.75
COc1ccc(-c2ccc3c(c2)[C@@H]2[C@@H](CCN2C(=O)c2ccc4c(c2)OCO4)[C@H](CO)N3C)cc1,-28.67